For at least one entry, the source does not settle the construct or the ends of the probe. Weaker means in comparison with the reference protein, sequence or condition of that experiment. At least one verdict rests on a figure or table, not on a statement of the authors.
What was measured:
BLM642-1290 helicase [1] = target: BLM642-1290 helicase (UniProt P54132); experiment: fluorescence anisotropy; settings: 20 mM Tris pH 7.9, 25 mM NaCl, 3 mM MgCl2, 0.1 mM DTT, FP temperature not stated, recombinant protein, residues 642-1290
BLM642-1290 helicase [2] = target: BLM642-1290 helicase (UniProt P54132); experiment: EMSA; settings: 20 mM Tris pH 7.9, 25 mM NaCl, 3 mM MgCl2, 0.1 mM DTT, EMSA at room temperature 45 min, recombinant protein, residues 642-1290, label: 3' fluorescein (FAM) on strand 2

Amino acid sequences for entries named in this document (tags omitted). Residues count along the entry.
UniProt P54132, 642-1290: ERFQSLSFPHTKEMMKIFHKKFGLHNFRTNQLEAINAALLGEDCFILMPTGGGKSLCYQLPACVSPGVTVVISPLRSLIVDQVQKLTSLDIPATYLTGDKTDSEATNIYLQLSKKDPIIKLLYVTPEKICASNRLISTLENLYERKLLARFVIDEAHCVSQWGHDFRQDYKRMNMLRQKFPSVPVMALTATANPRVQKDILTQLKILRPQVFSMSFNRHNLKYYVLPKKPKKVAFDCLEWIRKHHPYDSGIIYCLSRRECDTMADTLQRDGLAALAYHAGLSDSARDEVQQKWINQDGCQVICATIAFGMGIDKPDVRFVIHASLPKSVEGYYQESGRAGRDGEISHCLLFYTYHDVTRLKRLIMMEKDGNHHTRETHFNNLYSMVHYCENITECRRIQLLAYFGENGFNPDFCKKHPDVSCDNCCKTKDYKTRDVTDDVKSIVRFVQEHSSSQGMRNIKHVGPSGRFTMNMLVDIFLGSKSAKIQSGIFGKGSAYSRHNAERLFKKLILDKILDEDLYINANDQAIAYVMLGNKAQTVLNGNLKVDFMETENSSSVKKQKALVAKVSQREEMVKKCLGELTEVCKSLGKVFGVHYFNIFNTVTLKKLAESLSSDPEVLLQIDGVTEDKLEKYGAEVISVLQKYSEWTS

## AATCCGTCGAGCAGAGTTAGGTTAGGTTAGGTTAGTTTTTTTTTT / CCTAACTCTGCTCGACGGATT [dsDNA A1A2]
BLM642-1290 helicase [1]; 33.34 uM HJNO (42.42% inhibition, inhibitor Ki 12.89 +/- 3.59 uM), label: 3' fluorescein (FAM) on strand 2
  binding result: binds more weakly
BLM642-1290 helicase [1]; 3 mM Mg2+, 500 nM BLM, 2 nM DNA, no inhibitor, label: 3' fluorescein (FAM) on strand 2
  binding result: binds
BLM642-1290 helicase [2]; 3 mM Mg2+, 2.5 uM BLM, no inhibitor
  binding result: binds
BLM642-1290 helicase [2]; 0.335 and 3.35 uM HJNO
  binding result: binds more weakly
BLM642-1290 helicase [2]; <0.05 uM mitomycin C
  binding result: binds more weakly

## CCTAACTCTGCTCGACGGATT [ssDNA (21 nt) A2]
BLM642-1290 helicase [1]; 6.67 uM mitomycin C (8% inhibition, inhibitor Ki 3.62 +/- 0.84 uM), label: 3' fluorescein (FAM), single-stranded DNA
  binding result: binds more weakly
BLM642-1290 helicase [1]; 33.34 uM HJNO (46.72% inhibition, inhibitor Ki 21.39 +/- 1.76 uM), label: 3' fluorescein (FAM), single-stranded DNA
  binding result: binds more weakly
BLM642-1290 helicase [1]; 3 mM Mg2+, 500 nM BLM, 2 nM DNA, no inhibitor, label: 3' fluorescein (FAM), single-stranded DNA
  binding result: binds

From publication PMC6819594, “Screening antiproliferative drug for breast cancer from bisbenzylisoquinoline alkaloid tetrandrine and fangchinoline derivatives by targeting BLM helicase” (BMC Cancer, 2019)
